The values below come from PubChem BioAssay AID493014 (National Center for Advancing Translational Sciences (NCATS), 2011).

The assay can be described thus: qHTS Assay to Find Inhibitors of Chronic Active B-Cell Receptor Signaling. The conditions noted are these: ABC-DLBCL IkBa-CBG/CBR reporter, luminescence ratio (green luciferase fused to IkBa over red control in TMD8 lymphoma cells), 4 h. An outline of the steps:
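Cell line TMD8 (human ABC DLBCL), stably expressing tet-inducible CBG68-IkBa fusion and CBR; IMDM/0.5% FBS; cpd up to 46 uM; dox induction, 4 h, 37C/5% CO2; dual luminescence; green/red ratio; MG132 control.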

The mark [1] stands for this setting: measured here: CBR red luminescence, cell number.
Where [2] appears, read: measured here: IkBa-CBG green luminescence.

The structures appear in SMILES notation. The list shows a part of the results. Shown are side measurements of this screen, not its main read-out; they come without a call. The list favours compounds with an active or inconclusive main result. The note in brackets gives the kind of curve behind each potency; many fits are weak.

Take `CCC(C)(C)n1nnnc1C(c1cc2cc(C)ccc2[nH]c1=O)N1CCCc2ccccc21` (configuration not stated): the AC50 under setting [1] was 5.17 µM [falling, full curve].

With `O=C(COC(=O)c1ccccc1O)Nc1cccnc1Cl`, the AC50 under setting [1] was 4.11 µM [falling, full curve]. Turning to `CCOc1ccccc1NC(=O)C(Sc1nnc2ccccn12)c1ccccc1` (configuration not stated), under setting [1], the AC50 is 9.2 µM [falling, partial curve, poor fit]. Turning to `O=C(CSc1ccccn1)Nc1nc2ccccc2s1`, the AC50 under setting [1] is 16.4 µM [falling, single point]. The same measure, in the same setting: with `CCN(CC(=O)Nc1ccc(OC)cc1)C(=O)CN1C(=O)NC(C)(c2ccc3ccccc3c2)C1=O` (configuration not stated) the figure was 10 µM [falling, partial curve, poor fit]; with `CCCCC(=O)Nc1ccc(C(=O)Nc2ccc(S(=O)(=O)Nc3ccc(C)cc3)cc2)cc1`, 29.1 µM [rising, single point]. Still for that read-out and setting: then `CN1C(=O)C(Cl)(Cl)C(=O)c2ccccc21`, with 23.1 µM [falling, partial curve]; and `CCOC(=O)Nc1ccc2c(c1)N(C(=O)CCN(C)C)c1ccccc1S2`, with 20 µM [falling, partial curve]. For `CCCSc1nc(C)c(C(C)=O)cc1C#N`, under setting [2], the AC50 is 2.59 µM [falling, full curve, poor fit]. For `O=C(NCc1ccco1)c1nc2c(nnn2Cc2ccccc2Cl)c(=O)[nH]1`, the half-maximal activity concentration (AC50) runs as follows: under setting [1], 5.8 µM [falling, full curve, poor fit]; under setting [2], 23.1 µM [rising, single point]. Take `Clc1ccc(CCNc2nc3ccccc3s2)cc1`: the half-maximal activity concentration (AC50) under setting [1] is 2.82 µM [rising, partial curve, poor fit].

Regarding `Cn1c(=O)c2c(ncn2CCOc2cccc(Br)c2)n(C)c1=O`, the AC50 under setting [1] was 25.1 µM [falling, single point].

As for `Clc1ccc(CNCc2cccs2)cc1Cl`, under setting [1], the AC50 is 13 µM [rising, partial curve, poor fit].

`O=C(NCc1ccccn1)c1ccc(NS(=O)(=O)c2cccc(Cl)c2)cc1`: the AC50 under setting [1] was 11.2 µM [falling, partial curve, poor fit]. The same measure, in the same setting: with `CCC(=O)c1ccc(OCC(=O)NCC2COc3ccccc3O2)cc1` (configuration not stated) the figure was 20.6 µM [rising, single point]. In the case of `O=C(CSC1=Nc2ccccc2C2=NC(c3ccccc3)C(=O)N12)NC1CCCCC1` (configuration not stated), the AC50 under setting [1] was 6.51 µM [falling, single point]. Same read-out and setting: then `COc1cccc(NC(=O)N2CCN3CCCCC3C2)c1` (configuration not stated), with 8.91 µM [falling, partial curve]; and `C=CCSc1nc2ccccc2n1Cc1nnc(-c2cccs2)o1`, with 35.5 µM [falling, partial curve, poor fit]; and `CCC1CCCCN1C(=O)CSc1nnc(CNC(=O)COc2ccc(Cl)cc2)o1` (configuration not stated), with 29.1 µM [rising, single point].

In the case of `Cc1ccc2oc(=O)c(-c3ccc(O)cc3)c(C)c2c1`, under setting [1], the AC50 was 0.103 µM [falling, full curve, poor fit]. For `CC(C)CN1C(=O)C(=O)N(CC(=O)N(C)CC(=O)Nc2ccc(Cl)c(C(F)(F)F)c2)C1=O`, the AC50 under setting [1] was 4.11 µM [rising, full curve, poor fit]. Turning to `C=CCn1nc([N+](=O)[O-])nc1Sc1cccc2cccnc12`, the AC50 under setting [1] is 29.1 µM [falling, single point].

As to `CCCCc1nc(NCCNC(=O)c2ccccc2)c(C#N)c2c1CSC(C)(C)C2`, the AC50 under setting [1] was 20.6 µM [falling, single point]. Still for that read-out and setting: then `CC(C)(C)n1nc2c(c1NC(=O)c1cc3ccccc3o1)CS(=O)(=O)C2`, with 6.31 µM [rising, full curve]. The same measure, in the same setting: with `COCc1cc(C)n(CC(=O)N/N=C/c2ccc(-c3ccc(Cl)c(C(=O)O)c3)o2)c(=O)c1C#N` the figure was 23.1 µM [falling, single point]; with `COC(=O)c1cc(O)cc(OC)c1C(=O)c1c(O)cc(C)cc1O`, 12.6 µM [falling, partial curve, poor fit]; with `Cc1ccc(N(C)S(=O)(=O)c2cccc(C(=O)Nc3nc4ccccc4[nH]3)c2)cc1`, 18.4 µM [falling, single point].

Turning to `O=C1NC2(CCCCC2)Oc2ccccc21`, under setting [1], the AC50 is 23.1 µM [rising, single point]. `CCOc1ncccc1C(=O)OCC(=O)Nc1ccc(C(N)=O)cc1`: under setting [1], the half-maximal activity concentration (AC50) is 28.2 µM [rising, single point]. Take `COc1ccc(-c2c[n+]3c(n2-c2ccc(C)cc2)CCCCC3)cc1`: the AC50 under setting [2] was 35.5 µM [rising, partial curve, poor fit].

As to `Cc1nc2ccc(NC(=O)c3ccco3)cc2nc1C`, under setting [1], the AC50 is 11.2 µM [falling, single point]. Still for that read-out and setting: with `Cc1ccc(NC(=O)C(=O)NNC(=O)c2ccccc2C)cc1Cl` the figure was 11.2 µM [falling, partial curve, poor fit]; with `c1nc(NC2CCCCC2)c2[nH]cnc2n1`, 16.4 µM [falling, partial curve]; with `CCCN(CC#CC(O)(c1ccccc1)c1cccnc1)CCC` (configuration not stated), 35.5 µM [falling, partial curve, poor fit].

Consider `CCN(CC)C1CCN(C(=O)c2ccc(OC3CCN(CCc4ccccc4)CC3)cc2)C1` (configuration not stated), for which the half-maximal activity concentration (AC50) under setting [1] was 35.5 µM [falling, single point].

`O=c1[nH]c(-c2ccco2)nc2sc3c(c12)CCCC3`: the AC50 under setting [1] is 1.64 µM [rising, full curve, poor fit].

With `COc1ccc(OC)c(C2=NO[C@@H]3C(=O)N(c4cc(Cl)ccc4OC)C(=O)[C@H]23)c1`, the AC50 under setting [1] is 18.4 µM [falling, single point]. Same read-out and setting: with `O=C(CCN1C(=O)CSc2ccccc21)Nc1ccc(OC(F)(F)F)cc1` the figure was 2.06 µM [rising, full curve, poor fit]; with `CCOC(=O)c1c(CSCc2ccccc2)oc2ccc(O)c(CN(C)C)c12`, 4.47 µM [falling, full curve]; with `O=C(NC1C2CC3CC(C2)CC1C3)c1ccc(N2CCNCC2)c([N+](=O)[O-])c1` (configuration not stated), 6.31 µM [rising, single point]. On to `COc1cccc(C(=O)OCC(=O)c2c(N)n(C)c(=O)n(C)c2=O)c1`, for which the AC50 under setting [1] was 25.9 µM [falling, partial curve, poor fit].
